Data: article PMC3499479
No constants are given. Whether binding was seen depends on the method and setting. Some entries that bind do so weakly or less than the wild type.

Legend:
Test in all cases: two-hybrid; FBX fused to Gal4-DB, ASK fused to Gal4-AD; yeast mating; selection on SD without Leu, Trp, His, Ade (high strength) or without Leu, Trp, His (low strength); every combination examined twice
[1] = target: T1, F-box (FBX) protein At2g31470 (Arabidopsis thaliana) (UniProt Q5BPS3)
T1 sequence: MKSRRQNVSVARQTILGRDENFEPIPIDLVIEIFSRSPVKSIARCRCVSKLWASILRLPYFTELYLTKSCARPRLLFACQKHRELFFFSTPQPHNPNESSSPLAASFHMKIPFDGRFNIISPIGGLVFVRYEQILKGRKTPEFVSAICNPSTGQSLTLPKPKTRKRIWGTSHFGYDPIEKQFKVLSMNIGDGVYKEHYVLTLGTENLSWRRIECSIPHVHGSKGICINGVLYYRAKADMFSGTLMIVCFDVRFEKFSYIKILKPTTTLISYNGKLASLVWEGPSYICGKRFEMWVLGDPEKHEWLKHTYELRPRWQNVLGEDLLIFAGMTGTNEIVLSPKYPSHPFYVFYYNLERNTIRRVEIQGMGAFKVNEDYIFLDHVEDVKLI

[2] = target: T2, F-box (FBX) protein At1g30790 (Arabidopsis thaliana) (UniProt Q9SY20)
T2 sequence: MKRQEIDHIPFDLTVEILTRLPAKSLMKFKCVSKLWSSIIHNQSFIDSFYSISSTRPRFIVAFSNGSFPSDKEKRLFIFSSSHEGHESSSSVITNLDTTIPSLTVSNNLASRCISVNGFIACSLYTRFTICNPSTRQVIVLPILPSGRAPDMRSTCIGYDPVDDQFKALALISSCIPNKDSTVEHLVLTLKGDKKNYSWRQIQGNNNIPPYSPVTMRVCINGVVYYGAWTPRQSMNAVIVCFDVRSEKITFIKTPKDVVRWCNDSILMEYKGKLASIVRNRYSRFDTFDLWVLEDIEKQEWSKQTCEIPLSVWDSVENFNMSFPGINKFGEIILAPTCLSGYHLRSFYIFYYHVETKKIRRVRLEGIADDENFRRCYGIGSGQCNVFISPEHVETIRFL

[3] = target: T3, F-box (FBX) protein At3g03360 (Arabidopsis thaliana) (UniProt Q84W80)
T3 sequence: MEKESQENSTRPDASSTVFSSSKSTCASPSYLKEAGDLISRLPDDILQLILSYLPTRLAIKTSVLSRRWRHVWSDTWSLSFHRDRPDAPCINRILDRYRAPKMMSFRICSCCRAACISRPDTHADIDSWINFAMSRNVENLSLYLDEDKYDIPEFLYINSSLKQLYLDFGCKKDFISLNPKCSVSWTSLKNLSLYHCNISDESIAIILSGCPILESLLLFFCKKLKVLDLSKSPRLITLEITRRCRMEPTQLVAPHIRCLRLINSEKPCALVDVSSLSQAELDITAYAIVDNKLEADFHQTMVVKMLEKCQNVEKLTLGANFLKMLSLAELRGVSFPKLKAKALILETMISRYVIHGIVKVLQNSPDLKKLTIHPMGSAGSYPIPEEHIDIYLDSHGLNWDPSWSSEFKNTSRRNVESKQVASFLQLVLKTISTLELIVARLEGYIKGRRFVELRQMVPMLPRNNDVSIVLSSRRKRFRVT

[4] = target: T4, F-box (FBX) protein At1g31080 (Arabidopsis thaliana) (UniProt Q9SA02)
T4 sequence: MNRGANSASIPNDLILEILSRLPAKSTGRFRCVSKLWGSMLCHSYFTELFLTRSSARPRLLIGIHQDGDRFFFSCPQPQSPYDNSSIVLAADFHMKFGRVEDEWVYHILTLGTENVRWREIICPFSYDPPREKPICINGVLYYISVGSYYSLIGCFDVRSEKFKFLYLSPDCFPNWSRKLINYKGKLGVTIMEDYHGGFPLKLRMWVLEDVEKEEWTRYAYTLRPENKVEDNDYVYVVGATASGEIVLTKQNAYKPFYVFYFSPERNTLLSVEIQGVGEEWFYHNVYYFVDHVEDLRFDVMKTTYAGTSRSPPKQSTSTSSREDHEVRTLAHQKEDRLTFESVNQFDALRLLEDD

[5] = target: T5, F-box (FBX) protein At5g21040 (Arabidopsis thaliana) (UniProt Q94AD8)
T5 sequence: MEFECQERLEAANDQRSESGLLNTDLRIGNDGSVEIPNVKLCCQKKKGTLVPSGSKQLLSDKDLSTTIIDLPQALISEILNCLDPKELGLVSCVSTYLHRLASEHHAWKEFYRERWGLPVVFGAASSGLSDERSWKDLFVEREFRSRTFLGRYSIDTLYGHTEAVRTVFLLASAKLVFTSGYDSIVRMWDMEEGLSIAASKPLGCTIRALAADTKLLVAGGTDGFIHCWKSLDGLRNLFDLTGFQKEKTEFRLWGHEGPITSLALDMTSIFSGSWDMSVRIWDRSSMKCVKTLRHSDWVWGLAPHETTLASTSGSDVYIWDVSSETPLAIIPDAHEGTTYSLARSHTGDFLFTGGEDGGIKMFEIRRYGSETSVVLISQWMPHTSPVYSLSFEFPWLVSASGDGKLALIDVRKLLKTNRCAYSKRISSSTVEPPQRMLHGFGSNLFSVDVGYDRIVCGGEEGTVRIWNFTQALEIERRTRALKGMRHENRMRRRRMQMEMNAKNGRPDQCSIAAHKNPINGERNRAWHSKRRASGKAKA

binding [1]: binds
binding [2]: binds
binding [3]: binds
binding [4]: binds
binding [5]: binds
B1: Arabidopsis SKP1-LIKE 14 (ASK14) (protein, UniProt O81057 1-149)
chain: MSSNKIVLSSSDGESFEVEEAVARKLKIVEHMIEDDCVVTEVPLQNVTGKILSIVVEYCKKHVVDEESDEFKTWDEEFMKKFDQPTVFQLLLAANYLNIKGLLDLSAQTVADRIKDKTPEEIREIFNIENDFTPEEEAAVRKENAWAFE
